The source of these data is article doi:10.1101/487454.

The chains behind the UniProt entries cited, without tags or fusion partners.
UniProt Q86VF7: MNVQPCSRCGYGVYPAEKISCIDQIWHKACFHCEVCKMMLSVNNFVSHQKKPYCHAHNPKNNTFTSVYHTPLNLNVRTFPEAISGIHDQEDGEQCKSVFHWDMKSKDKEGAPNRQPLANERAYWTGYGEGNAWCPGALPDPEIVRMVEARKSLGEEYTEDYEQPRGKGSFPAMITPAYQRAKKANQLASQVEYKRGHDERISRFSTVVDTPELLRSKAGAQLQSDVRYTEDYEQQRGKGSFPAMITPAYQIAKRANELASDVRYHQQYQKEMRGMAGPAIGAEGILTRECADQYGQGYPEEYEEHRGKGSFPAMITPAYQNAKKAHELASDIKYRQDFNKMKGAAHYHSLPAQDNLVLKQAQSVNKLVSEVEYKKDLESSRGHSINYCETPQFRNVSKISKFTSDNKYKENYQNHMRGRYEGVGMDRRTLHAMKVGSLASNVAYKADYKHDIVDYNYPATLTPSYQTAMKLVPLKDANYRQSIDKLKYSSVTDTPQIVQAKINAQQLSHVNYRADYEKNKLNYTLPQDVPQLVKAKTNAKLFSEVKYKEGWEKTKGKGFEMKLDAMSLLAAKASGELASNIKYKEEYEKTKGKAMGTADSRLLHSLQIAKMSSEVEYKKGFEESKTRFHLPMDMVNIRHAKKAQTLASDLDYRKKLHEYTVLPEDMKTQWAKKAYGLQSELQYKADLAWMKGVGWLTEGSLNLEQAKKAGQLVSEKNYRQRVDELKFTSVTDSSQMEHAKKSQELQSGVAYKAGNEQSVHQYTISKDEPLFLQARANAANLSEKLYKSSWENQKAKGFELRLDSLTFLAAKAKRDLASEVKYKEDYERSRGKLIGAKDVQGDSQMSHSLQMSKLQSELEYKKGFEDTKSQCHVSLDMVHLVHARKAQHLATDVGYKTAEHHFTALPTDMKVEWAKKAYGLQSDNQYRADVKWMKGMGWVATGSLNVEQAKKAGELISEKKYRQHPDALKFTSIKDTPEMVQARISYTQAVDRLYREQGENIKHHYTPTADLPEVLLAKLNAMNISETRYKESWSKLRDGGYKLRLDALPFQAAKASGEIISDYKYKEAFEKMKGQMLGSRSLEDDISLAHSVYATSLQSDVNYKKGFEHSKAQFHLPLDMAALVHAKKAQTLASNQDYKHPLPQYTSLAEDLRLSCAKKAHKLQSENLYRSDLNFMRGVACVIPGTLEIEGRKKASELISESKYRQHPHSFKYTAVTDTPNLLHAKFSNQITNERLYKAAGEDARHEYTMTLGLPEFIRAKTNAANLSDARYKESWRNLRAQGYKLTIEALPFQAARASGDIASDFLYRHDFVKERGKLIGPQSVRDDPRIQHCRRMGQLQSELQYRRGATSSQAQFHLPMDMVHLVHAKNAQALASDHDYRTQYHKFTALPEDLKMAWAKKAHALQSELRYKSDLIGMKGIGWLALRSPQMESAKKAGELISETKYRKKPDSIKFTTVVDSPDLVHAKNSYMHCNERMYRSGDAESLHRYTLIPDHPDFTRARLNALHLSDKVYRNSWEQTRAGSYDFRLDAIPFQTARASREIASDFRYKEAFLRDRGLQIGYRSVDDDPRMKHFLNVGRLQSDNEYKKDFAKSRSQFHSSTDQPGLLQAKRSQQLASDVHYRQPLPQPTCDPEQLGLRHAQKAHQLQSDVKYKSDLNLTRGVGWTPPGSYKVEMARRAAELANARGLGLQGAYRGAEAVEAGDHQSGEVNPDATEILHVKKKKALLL

What all share (experiment): co-IP
The target in test [1] is T1, KLHL40-FLAG (UniProt Q2TBA0).
T1 sequence: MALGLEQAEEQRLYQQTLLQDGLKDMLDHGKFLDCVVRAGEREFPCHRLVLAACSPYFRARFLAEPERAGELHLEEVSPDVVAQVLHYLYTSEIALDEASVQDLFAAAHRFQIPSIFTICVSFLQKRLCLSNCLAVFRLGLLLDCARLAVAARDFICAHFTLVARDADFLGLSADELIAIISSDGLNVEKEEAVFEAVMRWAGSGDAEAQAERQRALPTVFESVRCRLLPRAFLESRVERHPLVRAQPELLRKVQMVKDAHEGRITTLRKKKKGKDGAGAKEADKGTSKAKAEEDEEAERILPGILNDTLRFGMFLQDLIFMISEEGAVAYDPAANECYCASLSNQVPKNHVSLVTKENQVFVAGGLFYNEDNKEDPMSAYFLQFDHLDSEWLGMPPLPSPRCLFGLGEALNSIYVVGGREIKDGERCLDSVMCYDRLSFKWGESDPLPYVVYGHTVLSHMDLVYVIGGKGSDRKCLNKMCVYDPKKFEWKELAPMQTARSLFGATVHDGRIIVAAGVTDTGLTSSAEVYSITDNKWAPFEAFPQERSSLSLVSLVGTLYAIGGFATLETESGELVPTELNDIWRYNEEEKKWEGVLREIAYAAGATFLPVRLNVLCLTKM

The target in test [2] is T1, KLHL40-FLAG. The source holds these as a separate data set.
The target of test [3] is Human NRAP-V5 (human) (UniProt Q86VF7).

Where two headings read alike, the source gives them in different places. Results are given in words; binding and its absence hold for the method and conditions named. Binding seen in cells or lysates may run through a third protein. Some binding calls cover weakened binding; strength is not graded here. Sequences can lack the tags named with a protein.

In the case of “Human NRAP-V5 (from UniProt Q86VF7 1-1730)”, the binding result in test [1] and in test [2] was “binds” each time.

B1: Human KLHL41-FLAG (protein, UniProt O60662 1-606)
chain: MDSQRELAEELRLYQSTLLQDGLKDLLDEKKFIDCTLKAGDKSLPCHRLILSACSPYFREYFLSEIDEAKKKEVVLDNVDPAILDLIIKYLYSASIDLNDGNVQDIFALASRFQIPSVFTVCVSYLQKRLAPGNCLAILRLGLLLDCPRLAISAREFVSDRFVQICKEEDFMQLSPQELISVISNDSLNVEKEEAVFEAVMKWVRTDKENRVKNLSEVFDCIRFRLMTEKYFKDHVEKDDIIKSNPDLQKKIKVLKDAFAGKLPEPSKNAAKTGAGEVNGDVGDEDLLPGYLNDIPRHGMFVKDLILLVNDTAAVAYDPTENECYLTALAEQIPRNHSSIVTQQNQIYVVGGLYVDEENKDQPLQSYFFQLDSIASEWVGLPPLPSARCLFGLGEVDDKIYVVAGKDLQTEASLDSVLCYDPVAAKWNEVKKLPIKVYGHNVISHKGMIYCLGGKTDDKKCTNRVFIFNPKKGDWKDLAPMKIPRSMFGVAVHKGKIVIAGGVTEDGLSASVEAFDLTTNKWDVMTEFPQERSSISLVSLAGSLYAIGGFAMIQLESKEFAPTEVNDIWKYEDDKKEWAGMLKEIRYASGASCLATRLNLFKLSKL
As for B1, the binding entry in test [3] is “binds”.
